Measured values from article PMC9024624.
Results are given in words; binding and its absence hold for the method and conditions named. Binding calls can cover weak binding; strength is not graded here.

By UniProt entry, the sequences of proteins in these tests, tags left out. Where a name states a change or a piece, a line headed by the entry shows the natural chain unless it says otherwise.
UniProt Q7LZK8: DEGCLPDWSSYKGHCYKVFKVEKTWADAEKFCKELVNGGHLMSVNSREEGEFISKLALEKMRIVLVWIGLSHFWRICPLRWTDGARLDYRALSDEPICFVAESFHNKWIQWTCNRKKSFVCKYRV
UniProt Q7LZK5: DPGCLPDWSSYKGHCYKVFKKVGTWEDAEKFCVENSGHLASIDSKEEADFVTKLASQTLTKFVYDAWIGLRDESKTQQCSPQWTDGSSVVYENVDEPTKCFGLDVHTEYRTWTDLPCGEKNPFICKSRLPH

Target: bitiscetin-1 β subunit (Bitis arietans) (UniProt Q7LZK8)
Assay: SDS-PAGE under non-reducing and reducing conditions; purified protein run unreduced (~25 kDa) and reduced (two bands); for rBit-3 N-terminal sequencing of the two reduced bands; subunits joined in the producing cells

With “bitiscetin-1 α subunit (from UniProt Q7LZK5)” the binding was “binds”.
